For 38 molecules, maximal number results are on record in the supplement of paper PMC9549374.

The structures appear in SMILES notation. This is one part of the list. Rule as the data show it: active = 2-fold of DMSO or more and inactive = the rest. Single values of this set are uncertain. Some low values are a fixed figure set by the source, not a measured ratio.

The subject of this test is CM7/1-hgem mouse ES cell-derived cardiomyocytes. Description: maximal number of mAG-hGem(1/110)-positive cardiomyocytes over 96 h, fold-change vs DMSO; higher = more cardiomyocyte cell cycle activity. The note with it: 1 µM; 96 (max over 12 h time points) h.
As to `CC(C(=O)O)c1ccc2c(c1)Cc1cccnc1O2` (stereo not drawn), the maximal number is inactive: 1. The same measure for `COc1cc2c(cc1-c1coc3c4c(c(OC)cc3c1=O)OC(C)(C)C=C4)OCO2`: inactive: 1; for `O=c1c(-c2cc(O)c(O)c(O)c2)coc2cc(O)c(O)c(O)c12`: inactive: 1; for `O=c1[nH]c(=O)n([C@H]2C[C@H](O)[C@@H](CO)O2)cc1I`: inactive: 1. On to `CC12CC3CC(C)(C1)CC(N)(C3)C2`, for which the maximal number is inactive: 0.

Regarding `Cn1c(=O)c2nc(C3CCCC3)[nH]c2n(C)c1=O`, the maximal number was inactive: 1. With `COc1ccc2c(c1)OCc1c-2oc2cc(OC)ccc12` the figure was inactive: 1. With `CC(C(=O)O)c1cccc(Oc2ccccc2)c1` (stereo not drawn) the figure was inactive: 1. For the molecule `OC[C@H]1O[C@@H](Oc2cc(O)cc(/C=C/c3ccc(O)cc3)c2)[C@H](O)[C@@H](O)[C@@H]1O`, the maximal number is inactive: 1. With `CCc1cccc2c3c([nH]c12)C(CC)(CC(=O)O)OCC3` (stereo not drawn) the figure was inactive: 1; with `COc1cc(-c2coc3cc(OC)c(OC)c(OC)c3c2=O)cc(OC)c1OC`, inactive: 1; with `COC(=O)[C@@H]1OC(=O)C2OC23[C@@]1(C)CCC1[C@@]2(C)CCC(=O)C(C)(C)C2C[C@@H](OC(C)=O)[C@]13C` (stereo partly drawn), inactive: 1. With `CC1(C)CC[C@]2(C(=O)O)CC[C@]3(C)C(=CCC4[C@@]5(C)CC[C@@H](O)C(C)(C)C5CC[C@]43C)C2C1` (stereo partly drawn) the figure was inactive: 1; with `CC(S)C(=O)NCC(=O)O` (stereo not drawn), inactive: 1; with `CC(C)NCC(O)COc1ccc(CC(N)=O)cc1` (stereo not drawn), inactive: 1.

For the molecule `CC[C@H](C)[C@H]1O[C@]2(C=C[C@@H]1C)C[C@@H]1C[C@@H](C/C=C(\C)[C@@H](O[C@H]3C[C@H](OC)[C@@H](O[C@H]4C[C@H](OC)[C@@H](O)[C@H](C)O4)[C@H](C)O3)[C@@H](C)/C=C/C=C3\CO[C@@H]4[C@H](OC)C(C)=C[C@@H](C(=O)O1)[C@]34O)O2`, the maximal number is inactive: 1. The same measure for `CCOC(=O)[C@H](CCc1ccccc1)N[C@@H](C)C(=O)N1CC2(C[C@H]1C(=O)O)SCCS2`: inactive: 1; for `Nc1nc2c(ncn2COCCO)c(=O)[nH]1`: inactive: 1. With `Cc1cccc(C(=O)O)c1O` the figure was inactive: 1.

Take `CCCCCN(C)CCC(O)(P(=O)(O)O)P(=O)(O)O`: the maximal number is inactive: 1. On to `COc1cc(/C=C/C(=O)O)ccc1O`, for which the maximal number was active: 2.

Take `COc1ccc(CN2CCN(C(c3ccc(F)cc3)c3ccc(F)cc3)CC2)c(OC)c1OC`: the maximal number was inactive: 0. Consider `COc1c(-c2coc3cc4c(cc3c2=O)CC(O)C(C)(C)O4)ccc2c1C=CC(C)(C)O2` (stereo not drawn), for which the maximal number was inactive: 0. With `CC(C)c1nc(CN(C)C(=O)N[C@H](C(=O)N[C@@H](Cc2ccccc2)C[C@H](O)[C@H](Cc2ccccc2)NC(=O)OCc2cncs2)C(C)C)cs1` the figure was inactive: 1. The same measure for `Nc1nc2[nH]cc(CCc3ccc(C(=O)N[C@@H](CCC(=O)O)C(=O)O)cc3)c2c(=O)[nH]1`: inactive: 0.5; for `O=c1c(O)c(-c2ccccc2)oc2cc(O)ccc12`: inactive: 1.

As to `CCCCCC1C(=O)CCC1CC(=O)O` (stereo not drawn), the maximal number was inactive: 1. As for `CC1CCN(CCCC(=O)c2ccc(F)cc2)CC1`, the maximal number was inactive: 1. With `CC(=O)Nc1cccc(O)c1` the figure was inactive: 1; with `CN(C)C(=O)C(CCN1CCC(O)(c2ccc(Cl)cc2)CC1)(c1ccccc1)c1ccccc1`, inactive: 0; with `COc1cc2c(N3CCN(C(=O)Nc4ccc(OC(C)C)cc4)CC3)ncnc2cc1OCCCN1CCCCC1`, inactive: 1.

For `CCCCCCCC/C=C/CCCCCCCCOP(=O)([O-])OCC[N+](C)(C)C`, the maximal number is inactive: 0. The same measure for `CC1(C)[C@H]2CC[C@]1(CS(=O)(=O)O)C(=O)C2=Cc1ccc(C=C2C(=O)[C@@]3(CS(=O)(=O)O)CC[C@@H]2C3(C)C)cc1`: inactive: 1; for `OCc1ccccc1O[C@@H]1O[C@H](CO)[C@@H](O)[C@H](O)[C@H]1O`: inactive: 1; for `C[C@H](CCC(=O)O)[C@H]1CC[C@H]2[C@@H]3CC[C@@H]4C[C@H](O)CC[C@]4(C)[C@H]3CC[C@]12C`: inactive: 1. Regarding `C=CC1=C(C)c2cc3[nH]c(cc4nc(cc5[nH]c(cc1n2)c(C)c5CCC(=O)O)C(CCC(=O)O)=C4C)c(C)c3C=C`, the maximal number is inactive: 1. The same measure for `C=C1C[C@]23C[C@@]1(O)CC[C@H]2[C@@]12C=C[C@H](O)[C@@](C)(C(=O)O1)[C@H]2[C@@H]3C(=O)O`: inactive: 1.

Turning to `CC1=CC2C(C(C)C)CCC(C)(O)C2CC1` (stereo not drawn), the maximal number was inactive: 0.
